Measurements as given in the supplement of paper PMC10727501.
The other results are listed elsewhere or left out. This data set is noisy: repeats of one test often differ as much as different tests do.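 Free-swimming zebrafish larvae were scored for O-bend response probability to dark flashes (naive: first five; training: remaining flashes of four 60-flash blocks; test: later 60-flash block) and for turning toward alternating leftward/rightward LED motion (OMR). Six treated larvae were compared with sixty 0.1% DMSO controls; |SSMD|≥2 defined a hit.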

Experiments:
Conditions in all cases: 10 µM; pre-incubation: 30-90 min
[1] = test system: Danio rerio larvae (5 dpf, TLF); test: OMR-Perf (SSMD vs DMSO vehicle); higher = higher than vehicle (e.g. higher dark-flash O-bend response probability, or better optomotor performance)
[2] = test system: Danio rerio larvae (5 dpf, TLF); test: Prob-Test (SSMD vs DMSO vehicle); higher = higher than vehicle (e.g. higher dark-flash O-bend response probability, or better optomotor performance)
[3] = test system: Danio rerio larvae (5 dpf, TLF); test: Prob-Naive (SSMD vs DMSO vehicle); higher = higher than vehicle (e.g. higher dark-flash O-bend response probability, or better optomotor performance)
[4] = test system: Danio rerio larvae (5 dpf, TLF); test: Prob-Train (SSMD vs DMSO vehicle); higher = higher than vehicle (e.g. higher dark-flash O-bend response probability, or better optomotor performance)

Compound	OMR-Perf [1]	Prob-Test [2]	Prob-Naive [3]	Prob-Train [4]
CCCCC(F)(F)C(=O)CC[C@H]1[C@H](O)CC(=O)[C@H]1CCCCCCC(=O)O [Lubiprostone]	-0.55	-1.28	-2.74	-2.78
C=C[C@]1(C)C[C@@H](OC(=O)CSC(C)(C)CNC(=O)[C@H](N)C(C)C)[C@@]2(C)[C@H](C)CC[C@]3(CCC(=O)[C@H]32)[C@@H](C)[C@@H]1O.Cl [Valnemulin HCl]	-0.325	0.185	-0.624	-0.599
CN1CCN(S(=O)(=O)c2ccc(-c3cnc(N)c(C(=O)Nc4cccnc4)n3)cc2)CC1	0.345	-0.501	-0.102	-0.0679
CC(=O)c1c(C)c2cnc(Nc3ccc(N4CCNCC4)cn3)nc2n(C2CCCC2)c1=O.Cl	0.431	-0.697	0.35	0.00477
NC1(Cc2ccc(Cl)cc2)CCN(c2ncnc3[nH]ccc23)CC1	-0.932	-0.493	0.102	-0.483
COc1cc2nc(N3CCN(C(=O)C4COc5ccccc5O4)CC3)nc(N)c2cc1OC.CS(=O)(=O)O (stereo unspecified) [Doxazosin Mesylate]	-0.598	-0.888	-0.0319	-0.478
Cc1ccccc1C(OCCN(C)C)c1ccccc1.O=C(O)CC(O)(CC(=O)O)C(=O)O (stereo unspecified) [Orphenadrine Citrate]	0.469	0.351	0.028	-0.459
CNCCC(Oc1ccc(C(F)(F)F)cc1)c1ccccc1.Cl (stereo unspecified) [Fluoxetine HCl]	-0.273	-0.208	-0.22	-0.0845
OCc1c[nH]c2ccccc12 [Indole-3-carbinol]	-0.161	-0.0963	-0.219	-0.467
CNC(=O)CN(CCN(CCN(CC(=O)[O-])CC(=O)NC)CC(=O)[O-])CC(=O)[O-].O.[Gd+3] [Gadodiamide]	0.0971	-0.287	0.471	0.00671
CC(C)CCN1c2nc(Nc3cc(F)c(O)c(F)c3)ncc2N(C)C(=O)C1C (stereo unspecified)	-0.325	0.718	-0.31	-0.444
COc1cc2ncnc(Nc3cccc(Br)c3)c2cc1OC.Cl	0.255	-0.221	-0.0443	-0.203
O=C(Cc1ccc(-c2ccc(OCCN3CCOCC3)cc2)cn1)NCc1ccccc1	-0.961	-2.06	-0.397	-0.69
Cn1cc(-c2[nH]c3cc(NC(=O)[C@H](N)C4CCCCC4)cc4c3c2C=NNC4=O)cn1	-0.137	-0.543	0.538	-0.0832
C=C1CC[C@@H]2[C@](C)(CO)[C@H](O)CC[C@@]2(C)[C@H]1C/C=C1/C(=O)OCC1O (stereo partly specified) [Andrographolide]	0.373	0.324	-0.29	0.331
CC(=O)Nc1nc(C)c(-c2ccc(Cl)c(S(=O)(=O)NCCO)c2)s1	0.15	-0.243	0.0951	0.00251
COc1cc2c(cc1OC)CC(=O)N(CCCN(C)C[C@@H]1Cc3cc(OC)c(OC)cc31)CC2.Cl [Ivabradine HCl]	0.336	0.0848	-0.336	0.105
COc1ccc(C2(C#N)CCC(C(=O)O)CC2)cc1OC1CCCC1 (stereo unspecified) [Cilomilast]	-0.308	-0.97	-0.724	-2.26
O=C(O)c1ccc(N2C(=O)C(=Cc3ccc(-c4ccc([N+](=O)[O-])cc4)o3)C=C2c2ccccc2)cc1	-0.522	0.218	0.312	0.527
Nc1ccn([C@@H]2CS[C@H](CO)O2)c(=O)n1 [Lamivudine]	0.106	0.189	0.096	0.409
N=C(N)Nc1nc(CSCCC(=N)NS(N)(=O)=O)cs1 [Famotidine]	-0.306	0.158	0.16	0.639
CC1=C(CC(=O)O)c2cc(F)ccc2/C1=C\c1ccc(S(C)=O)cc1 (stereo unspecified) [Sulindac]	0.401	0.0757	-0.0225	0.0865
C[C@]1(O)C[C@@H](c2nc(-c3ccc4ccc(-c5ccccc5)nc4c3)c3c(N)nccn32)C1 [OSI-906 (Linsitinib)]	-0.404	-0.51	-1.11	-0.769
COc1cnc(NS(=O)(=O)c2ccc(N)cc2)nc1 [Sulfameter]	-0.652	0.0481	0.0311	0.542
O=C(c1cccc(Cl)c1F)N1CCN(Cc2cccc(Nc3nccs3)n2)CC1	-0.0925	-0.853	-0.212	0.05
O=C(O)Cc1cc(I)c(Oc2ccc(O)c(I)c2)c(I)c1 [Tiratricol]	-0.181	-0.675	-0.329	-0.834
COc1ccc([C@@H]2CC(=O)c3c(O)cc(O)cc3O2)cc1O [Hesperetin]	-0.0313	-0.382	-0.599	-0.382

An excerpt from further up, for reference:
Compound	OMR-Perf [1]	Prob-Test [2]	Prob-Naive [3]	Prob-Train [4]
N=C(N)Nc1nc(CSCCC(=N)NS(N)(=O)=O)cs1 [Famotidine]	-0.306	0.158	0.16	0.639
CC1=C(CC(=O)O)c2cc(F)ccc2/C1=C\c1ccc(S(C)=O)cc1 (stereo unspecified) [Sulindac]	0.401	0.0757	-0.0225	0.0865

Following part:

Compound	OMR-Perf [1]	Prob-Test [2]	Prob-Naive [3]	Prob-Train [4]
CC(C)c1cnn2c(NCc3ccccc3)cc(NCCCCCCN)nc12.Cl	0.399	-0.272	-0.43	-0.746
C#CCN(C)CCCOc1ccc(Cl)cc1Cl.Cl [Clorgyline HCl]	-0.676	-1.97	-0.298	-1.46
CN1CCN(C2=Nc3cc(Cl)ccc3Nc3ccccc32)CC1 [Clozapine]	-0.793	-0.889	-0.105	-0.798
CCOC(=O)CCNc1cc(N2CCc3ccccc3CC2)nc(-c2ccccn2)n1.Cl	-0.307	-0.772	-0.257	-1.15
CC(C)c1ccccc1Cc1cc(C(=O)Nc2ccc(S(=O)(=O)c3ccccc3C(C)(C)C)cc2)c(O)c(O)c1O	-0.485	-0.298	-0.0443	-0.517
Cl.O=C1NCC2(CCN(CCc3ccccc3)CC2)O1 [Fenspiride HCl]	0.156	-0.785	0.00519	-0.889
Cl.O=C(O)Cc1cccc(OCCCN(Cc2cccc(C(F)(F)F)c2Cl)CC(c2ccccc2)c2ccccc2)c1	0.427	0.714	0.306	-0.00657
Cc1ccc(S(=O)(=O)NC(=O)NN2CCCCCC2)cc1 [Tolazamide]	0.309	-0.347	0.153	0.093
O=C(/C=C/c1ccc(O)cc1)c1ccc(O)cc1O [Isoliquiritigenin]	-0.374	0.0707	-0.234	0.407
CCN1CCC[C@H]1CNC(=O)c1cc(S(N)(=O)=O)ccc1OC [Levosulpiride]	0.258	0.139	0.0562	0.352
CS(=O)(=O)c1cccc(CNc2nc(Nc3ccc4c(c3)CCC(=O)N4)ncc2C(F)(F)F)c1	-0.585	-0.615	-0.296	-0.407
C=C(c1ccc(C(=O)O)cc1)c1cc2c(cc1C)C(C)(C)CCC2(C)C [Bexarotene]	-1.07	-1.63	0.454	-0.385
COC(=O)Nc1nc2ccc(S(=O)c3ccccc3)cc2[nH]1 (stereo unspecified) [Oxfendazole]	-0.609	-0.676	0.26	-0.48
CC(C)(C)N.CCCC(N[C@@H](C)C(=O)N1[C@@H](C(=O)O)C[C@@H]2CCCC[C@@H]21)C(=O)OCC (stereo partly specified) [Perindopril Erbumine (Aceon)]	0.643	0.0526	-0.252	-0.499
Nc1nc(OCc2cc(Br)cs2)c2[nH]cnc2n1 [Lomeguatrib]	-0.147	-0.753	0	-0.883
Cn1cnc(N)c2ncnc1-2 [3-Methyladenine]	0.183	-0.0174	0.145	0.249
Cc1nc(NC(=O)N2CCC[C@H]2C(N)=O)sc1-c1csc(C(C)(C)C)n1	0.34	0.0951	-0.0697	-0.282
COc1cc2ncnc(Nc3ccc(F)c(Cl)c3)c2cc1NC(=O)/C=C/CN1CCCCC1	-0.355	-0.81	-0.476	-0.594
CN1C2CCCC1CC(NC(=O)c1nn(C)c3ccccc13)C2.Cl (stereo unspecified) [Granisetron HCl]	-0.191	0.233	-0.413	0.199
N#Cc1cc(CN2CCC(Nc3ncnc4sc(Cl)cc34)CC2)ccc1F.O=C(O)/C=C\C(=O)O	-0.875	-0.703	0.0551	-1.38
CC(Oc1cc(-c2cnn(C3CCNCC3)c2)cnc1N)c1c(Cl)ccc(F)c1Cl [(S)-crizotinib]	-0.64	-0.442	-0.344	-0.279
CC(=O)OCC(=O)NCCCOc1cccc(CN2CCCCC2)c1.Cl [Roxatidine Acetate HCl]	0.0834	0.228	0.188	0.54
Cc1cn(C2C=CC(CO)O2)c(=O)[nH]c1=O (stereo unspecified) [Stavudine (d4T)]	0.352	0.394	-0.0197	0.842
CS(=O)(=O)c1ccc(C2=C(c3ccccc3)C(=O)OC2)cc1 [Rofecoxib]	0.154	-0.214	-0.106	-0.0311
CN(C)C/C=C/C(=O)Nc1cc2c(Nc3ccc(F)c(Cl)c3)ncnc2cc1O[C@H]1CCOC1 [Afatinib (BIBW2992)]	0.274	-0.181	0.0778	-0.371
C[C@]12C[C@@]3(O)O[C@@H](O1)[C@]1(COC(=O)c4ccccc4)[C@H]3C[C@@]12O[C@@H]1O[C@H](CO)[C@@H](O)[C@H](O)[C@H]1O [Paeoniflorin]	-0.551	0.711	0.516	0.192
O=C(O)c1ccc(-n2nc(-c3ccccc3O)nc2-c2ccccc2O)cc1 [Deferasirox]	0.069	-0.242	-0.911	-1.45

An excerpt from above in order of molecular weight, low to high:
Compound	OMR-Perf [1]	Prob-Test [2]	Prob-Naive [3]	Prob-Train [4]
Cc1cn(C2C=CC(CO)O2)c(=O)[nH]c1=O (stereo unspecified) [Stavudine (d4T)]	0.352	0.394	-0.0197	0.842
N=C(N)Nc1nc(CSCCC(=N)NS(N)(=O)=O)cs1 [Famotidine]	-0.306	0.158	0.16	0.639
CN1CCN(S(=O)(=O)c2ccc(-c3cnc(N)c(C(=O)Nc4cccnc4)n3)cc2)CC1	0.345	-0.501	-0.102	-0.0679
